Laboratory results: PubChem BioAssay (EPA / NIEHS)
Inconclusive means that the source gave no clear call. Such entries were picked first, then a sample of the others. A potency beside an inconclusive call is a rough fit, not a confirmed value. Calls of active or inactive are those of the source. Rule for the calls: active = hit-call score of the fitted dose curve at least 0.9, where 1 is the maximum; inconclusive = response in the unintended direction; inactive = score below 0.9.

Protein sequences, listed by entry. Tags and fused reporters are not part of them. Lines headed by an entry give the natural chain unless they say otherwise; changes in a name come on top.
UniProt P41144: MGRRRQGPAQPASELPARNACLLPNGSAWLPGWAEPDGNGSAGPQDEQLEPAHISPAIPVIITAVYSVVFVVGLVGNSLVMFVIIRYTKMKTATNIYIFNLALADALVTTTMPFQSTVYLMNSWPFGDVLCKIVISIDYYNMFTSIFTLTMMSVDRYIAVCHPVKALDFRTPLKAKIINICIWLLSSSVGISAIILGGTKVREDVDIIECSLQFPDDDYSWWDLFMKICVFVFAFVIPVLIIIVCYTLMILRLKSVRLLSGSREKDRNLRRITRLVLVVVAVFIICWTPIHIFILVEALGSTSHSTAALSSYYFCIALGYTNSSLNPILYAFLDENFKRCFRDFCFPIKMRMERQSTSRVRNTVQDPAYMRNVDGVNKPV

Each compound was assayed against guinea pig Opioid, Kappa 1 Receptor (OpiateK), OPRK1 (gene 100135587) (UniProt P41144) (assay: NVS_GPCR_gOpiateK: NovaScreen (NVS) G Protein-Coupled Receptor Assay for guinea pig Opioid, Kappa 1 Receptor (OpiateK) (AID 2283252)).
Method: NVS_GPCR_gOpiateK is a biochemical, single-readout assay that uses extracted gene-proteins from Guinea pig cerebellar membranes in a tissue-based cell-free assay. Measurements were taken 2 hours after chemical dosing in a 48-well plate.NVS_GPCR_gOpiateK is one of one assay component(s) measured or calculated from the NVS_GPCR_gOpiateK assay. It is designed to make measurements of radioligand binding, a form of binding reporter, as detected with scintillation counting signals by Filter-based radiodetection technology.Data from the assay component NVS_GPCR_gOpiateK was analyzed into 1 assay endpoint. This assay endpoint, NVS_GPCR_gOpiateK, was analyzed in the positive analysis fitting direction relative to DMSO as the negative control and baseline of activity. Using a type of binding reporter, loss-of-signal activity can be used to understand changes in the binding as they relate to the gene Oprk1. Furthermore, this assay endpoint can be referred to as a primary readout, because the performed assay has only produced 1 assay endpoint. To generalize the intended target to other relatable targets, this assay endpoint is annotated to the gpcr intended target family, where the subfamily is rhodopsin-like receptor.
Binding assays used specific radioligands (tritiated, iodinated) with non-radioactive competitive displacement ligands in agonist or antagonist protocols (as indicated) and various reference compounds and inhibitors to titrate specific binding to receptors and transporters. Most enzyme assays (CYPs, kinases, phosphatases, proteases, HDACs) used recombinant protein and specific substrates (fluorescence mostly, some colorimetric and radioactive) and inhibitors, followed by a biochemical separation of substrate and product. All assays for the biochemical HTS were initially run in duplicate at a single concentration (10 uM for CYP450 assays and 25 uM for all others). […] Each assay was run with positive and negative controls, and concurrent controls on every plate. The follow-up (secondary) screen tested active chemical-pairs in concentration series, as well as a few additional assays not tested in the primary screen, some selected negative inactives, and several cases re-run in the concentration series for confirmatory purposes.

AC50, inconclusive:
Cc1[nH]nc2c1N=C(c1ccccc1Cl)c1cc([N+](=O)[O-])ccc1N2 0.00229 µM, C=CCc1cc(S(=O)(=O)c2ccc(O)c(CC=C)c2)ccc1O 6.05 µM, O=C(O)c1cccnc1 25 µM, Cc1oc2c(NC(=O)c3c(Cl)cccc3Cl)cccc2c1C(C)(C)O 25 µM, O=C(O)c1cccc(N(Cc2cccnc2)c2ccc(OC(F)F)c(OC(F)F)c2)c1 25 µM, CC/C(=C\C(=N/O)C(N)=O)C(C)[N+](=O)[O-] (stereo not drawn) 25 µM

outcome, inactive:
CCCOc1sc(C(=O)N2CCC(c3cc(CN)ccc3F)CC2)c(C)c1Br, CCc1cc(C2=C(C(=O)O)N(c3ccccc3C(F)(F)F)S(=O)(=O)c3ccccc32)cc2c1OCO2
